Sequences of proteins named here, by UniProt entry; tags and fusion partners are left off.
UniProt Q96RU2: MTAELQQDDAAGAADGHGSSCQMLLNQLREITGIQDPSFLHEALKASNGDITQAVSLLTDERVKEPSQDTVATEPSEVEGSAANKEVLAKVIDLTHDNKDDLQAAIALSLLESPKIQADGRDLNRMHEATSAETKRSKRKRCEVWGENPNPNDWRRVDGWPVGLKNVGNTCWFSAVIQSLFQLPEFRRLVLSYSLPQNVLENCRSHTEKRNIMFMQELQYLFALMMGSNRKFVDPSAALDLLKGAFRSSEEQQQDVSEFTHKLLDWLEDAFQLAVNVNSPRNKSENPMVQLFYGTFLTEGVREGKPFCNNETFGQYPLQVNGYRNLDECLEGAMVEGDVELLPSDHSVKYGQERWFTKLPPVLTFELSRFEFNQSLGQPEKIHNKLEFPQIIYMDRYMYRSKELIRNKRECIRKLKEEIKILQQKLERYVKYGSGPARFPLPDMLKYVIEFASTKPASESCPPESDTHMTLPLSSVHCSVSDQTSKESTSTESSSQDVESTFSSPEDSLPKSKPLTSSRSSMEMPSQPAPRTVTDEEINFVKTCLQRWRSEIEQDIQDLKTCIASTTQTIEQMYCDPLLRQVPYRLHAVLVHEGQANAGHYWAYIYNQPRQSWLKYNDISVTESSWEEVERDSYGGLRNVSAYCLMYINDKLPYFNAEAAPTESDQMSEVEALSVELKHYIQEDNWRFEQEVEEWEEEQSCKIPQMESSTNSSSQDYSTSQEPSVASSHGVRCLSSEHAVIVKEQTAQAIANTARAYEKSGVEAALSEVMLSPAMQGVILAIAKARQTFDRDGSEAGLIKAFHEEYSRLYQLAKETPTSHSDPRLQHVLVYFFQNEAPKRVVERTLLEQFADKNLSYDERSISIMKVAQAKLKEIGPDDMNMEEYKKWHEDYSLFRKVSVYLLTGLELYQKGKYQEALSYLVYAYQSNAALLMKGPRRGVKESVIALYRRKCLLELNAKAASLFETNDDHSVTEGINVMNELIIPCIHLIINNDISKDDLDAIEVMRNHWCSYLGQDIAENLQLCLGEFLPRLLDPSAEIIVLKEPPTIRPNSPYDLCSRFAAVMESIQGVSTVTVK
UniProt Q14980: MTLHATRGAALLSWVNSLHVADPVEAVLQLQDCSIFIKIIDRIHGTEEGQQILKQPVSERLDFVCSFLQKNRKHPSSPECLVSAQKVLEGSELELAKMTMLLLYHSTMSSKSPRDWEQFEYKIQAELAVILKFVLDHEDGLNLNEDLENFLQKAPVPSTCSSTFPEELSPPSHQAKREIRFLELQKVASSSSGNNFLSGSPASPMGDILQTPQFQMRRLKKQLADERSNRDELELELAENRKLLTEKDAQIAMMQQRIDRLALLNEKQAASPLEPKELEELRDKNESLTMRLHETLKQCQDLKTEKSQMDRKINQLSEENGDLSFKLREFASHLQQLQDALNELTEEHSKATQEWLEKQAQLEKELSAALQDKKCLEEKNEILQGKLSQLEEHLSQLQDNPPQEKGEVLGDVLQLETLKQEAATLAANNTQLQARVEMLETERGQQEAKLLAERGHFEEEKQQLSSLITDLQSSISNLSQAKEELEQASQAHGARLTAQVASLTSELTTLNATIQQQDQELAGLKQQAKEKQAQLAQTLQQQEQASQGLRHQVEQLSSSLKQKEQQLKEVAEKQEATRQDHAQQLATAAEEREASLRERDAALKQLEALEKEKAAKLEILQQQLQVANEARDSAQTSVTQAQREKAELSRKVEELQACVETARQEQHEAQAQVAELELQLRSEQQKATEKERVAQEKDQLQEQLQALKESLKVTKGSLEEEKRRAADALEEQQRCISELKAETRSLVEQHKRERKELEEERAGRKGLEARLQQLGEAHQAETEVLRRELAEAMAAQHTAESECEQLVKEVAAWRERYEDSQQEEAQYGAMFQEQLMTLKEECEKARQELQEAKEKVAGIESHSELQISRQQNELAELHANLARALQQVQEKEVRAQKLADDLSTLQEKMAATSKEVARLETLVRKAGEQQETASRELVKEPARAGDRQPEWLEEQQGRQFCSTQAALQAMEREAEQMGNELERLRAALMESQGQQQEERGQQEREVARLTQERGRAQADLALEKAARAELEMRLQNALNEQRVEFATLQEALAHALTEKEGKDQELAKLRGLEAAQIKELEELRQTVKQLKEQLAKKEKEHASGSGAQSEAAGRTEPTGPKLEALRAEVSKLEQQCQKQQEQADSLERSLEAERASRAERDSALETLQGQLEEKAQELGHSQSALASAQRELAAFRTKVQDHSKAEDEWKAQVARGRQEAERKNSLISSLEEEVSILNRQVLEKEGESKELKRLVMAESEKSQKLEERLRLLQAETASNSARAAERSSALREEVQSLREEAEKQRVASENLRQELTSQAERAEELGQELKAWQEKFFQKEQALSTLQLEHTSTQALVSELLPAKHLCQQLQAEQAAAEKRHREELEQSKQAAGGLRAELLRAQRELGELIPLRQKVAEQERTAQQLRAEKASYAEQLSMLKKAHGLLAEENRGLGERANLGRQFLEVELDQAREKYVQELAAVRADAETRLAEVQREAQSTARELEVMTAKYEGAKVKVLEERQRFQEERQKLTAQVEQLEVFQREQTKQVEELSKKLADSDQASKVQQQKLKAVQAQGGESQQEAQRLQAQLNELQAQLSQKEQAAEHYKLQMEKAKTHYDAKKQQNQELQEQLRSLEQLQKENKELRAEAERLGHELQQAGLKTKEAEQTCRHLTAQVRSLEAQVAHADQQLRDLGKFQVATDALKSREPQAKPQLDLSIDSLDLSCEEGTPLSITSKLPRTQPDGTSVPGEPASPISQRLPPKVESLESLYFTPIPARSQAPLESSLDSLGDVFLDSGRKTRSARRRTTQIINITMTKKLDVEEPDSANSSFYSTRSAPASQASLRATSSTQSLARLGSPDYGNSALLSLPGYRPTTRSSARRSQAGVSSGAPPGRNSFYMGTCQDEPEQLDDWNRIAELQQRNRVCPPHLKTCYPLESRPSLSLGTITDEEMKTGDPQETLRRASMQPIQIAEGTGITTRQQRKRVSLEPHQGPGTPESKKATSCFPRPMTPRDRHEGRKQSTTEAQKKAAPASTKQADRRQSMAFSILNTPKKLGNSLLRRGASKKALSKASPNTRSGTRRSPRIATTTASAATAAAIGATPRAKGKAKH
UniProt Q14676: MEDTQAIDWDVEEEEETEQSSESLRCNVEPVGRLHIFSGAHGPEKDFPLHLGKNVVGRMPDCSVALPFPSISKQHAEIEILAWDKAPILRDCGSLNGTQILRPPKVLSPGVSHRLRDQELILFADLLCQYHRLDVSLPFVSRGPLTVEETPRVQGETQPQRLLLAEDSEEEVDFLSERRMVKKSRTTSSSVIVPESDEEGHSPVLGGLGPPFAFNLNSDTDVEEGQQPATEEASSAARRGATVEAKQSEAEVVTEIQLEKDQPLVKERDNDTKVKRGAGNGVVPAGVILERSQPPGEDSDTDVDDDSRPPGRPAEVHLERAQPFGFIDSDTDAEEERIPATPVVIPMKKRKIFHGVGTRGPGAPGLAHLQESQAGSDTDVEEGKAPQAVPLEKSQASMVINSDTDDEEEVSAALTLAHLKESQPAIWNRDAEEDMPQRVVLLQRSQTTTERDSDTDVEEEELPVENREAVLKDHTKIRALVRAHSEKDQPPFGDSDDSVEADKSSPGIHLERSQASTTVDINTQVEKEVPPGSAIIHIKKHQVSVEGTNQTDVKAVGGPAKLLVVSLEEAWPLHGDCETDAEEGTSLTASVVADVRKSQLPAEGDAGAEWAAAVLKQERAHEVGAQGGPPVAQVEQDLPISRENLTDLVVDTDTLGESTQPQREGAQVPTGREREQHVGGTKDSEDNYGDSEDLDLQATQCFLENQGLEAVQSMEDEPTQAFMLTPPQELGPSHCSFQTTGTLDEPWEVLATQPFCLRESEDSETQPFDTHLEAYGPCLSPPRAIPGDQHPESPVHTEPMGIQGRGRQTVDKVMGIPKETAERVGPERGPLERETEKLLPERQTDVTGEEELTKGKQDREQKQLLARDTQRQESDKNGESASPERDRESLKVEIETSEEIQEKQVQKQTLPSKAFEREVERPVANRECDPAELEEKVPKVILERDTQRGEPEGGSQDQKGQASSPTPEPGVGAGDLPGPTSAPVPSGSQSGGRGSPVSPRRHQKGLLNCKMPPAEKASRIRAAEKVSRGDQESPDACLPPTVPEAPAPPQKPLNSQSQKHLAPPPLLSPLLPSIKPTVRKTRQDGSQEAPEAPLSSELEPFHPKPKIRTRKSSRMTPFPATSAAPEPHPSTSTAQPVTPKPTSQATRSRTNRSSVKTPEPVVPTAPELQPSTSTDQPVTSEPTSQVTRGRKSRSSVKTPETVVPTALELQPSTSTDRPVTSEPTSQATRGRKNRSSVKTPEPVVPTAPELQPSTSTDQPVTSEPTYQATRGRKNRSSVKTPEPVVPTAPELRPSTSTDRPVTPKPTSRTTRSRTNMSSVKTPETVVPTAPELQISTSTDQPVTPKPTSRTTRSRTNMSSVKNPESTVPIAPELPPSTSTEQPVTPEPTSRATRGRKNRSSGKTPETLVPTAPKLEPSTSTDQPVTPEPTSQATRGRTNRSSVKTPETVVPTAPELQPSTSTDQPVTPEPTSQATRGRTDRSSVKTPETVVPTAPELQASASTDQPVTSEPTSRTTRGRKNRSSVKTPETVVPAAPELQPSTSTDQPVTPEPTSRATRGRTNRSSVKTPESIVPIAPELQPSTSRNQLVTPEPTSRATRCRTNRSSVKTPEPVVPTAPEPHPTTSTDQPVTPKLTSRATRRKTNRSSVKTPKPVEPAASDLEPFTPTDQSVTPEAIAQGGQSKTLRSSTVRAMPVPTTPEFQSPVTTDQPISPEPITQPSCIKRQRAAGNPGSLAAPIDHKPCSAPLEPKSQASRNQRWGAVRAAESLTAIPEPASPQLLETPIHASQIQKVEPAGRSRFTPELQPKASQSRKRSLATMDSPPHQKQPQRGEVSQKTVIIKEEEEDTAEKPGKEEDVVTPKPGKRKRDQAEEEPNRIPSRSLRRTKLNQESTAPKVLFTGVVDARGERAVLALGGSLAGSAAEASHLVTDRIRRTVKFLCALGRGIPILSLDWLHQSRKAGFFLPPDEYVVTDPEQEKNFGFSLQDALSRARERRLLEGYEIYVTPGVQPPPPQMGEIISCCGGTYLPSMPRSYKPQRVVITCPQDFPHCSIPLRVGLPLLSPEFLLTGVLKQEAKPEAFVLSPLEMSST

In article doi:10.1101/2020.09.18.303834:

Molecular target: USP28 (Ubiquitin Specific Peptidase 28) (human (endogenous in HCT116)) (UniProt Q96RU2)
Assay: affinity purification with mass spectrometry

Row | binding | Substance
1 | binds | Nuclear mitotic apparatus protein 1 (NuMA1) (from UniProt Q14980 1-2115)
2 | binds | mediator of DNA damage checkpoint 1 (MDC1) (from UniProt Q14676 1-2089)

No constants are given. Whether binding was seen depends on the method and setting. In cells and extracts the contact can be indirect. Here binding means that the protein was enriched with, or labelled near, the bait; the list need not be complete.
